Measurements reported in PubChem BioAssay AID1224830 (NIAID, 2016)

Screen: 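Genes whose knock-down alters the TNF-alpha reporter response to LPS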 (primary screen)
Cells: human THP-1 monocytic leukaemia cells, TNF dual-luciferase reporter clone, PMA-differentiated to macrophage-like cells
Reagent: siRNA pool against human genes, 50 nM
Time to read-out: LPS for 4 h, given about 3 days after siRNA transfection
Conditions: bacterial LPS (TLR4 ligand), 10 ng/ml
Detection: 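Ratio of firefly to renilla light, scaled to the plate median and expressed as a robust z-score per replicate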
Scale: TNF reporter robust z-score: higher = stronger TNF reporter response to LPS
Rule for the call: 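Each well counts as active if its z-score is over 2.8 or under -1.5; controls are left without a call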
Shown is one part, drawn at random, of about 18,000 reagents. About 2,900 of all reagents (16%) were called active. 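Calls are made per well; low scores hint the gene aids the LPS response, high scores that it dampens it.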 Unmarked entries are inactive. Repeated entries: four replicate wells of each siRNA pool.

no.	target	TNF reporter robust z-score
1	TMEM257 (retired record)	-0.85
2	TMEM257 (retired record)	-0.72
3	TMEM257 (retired record)	-0.71
4	TMEM257 (retired record)	-0.23
5	KHDRBS1	1.28
6	KHDRBS1	2.61
7	KHDRBS1	2.53
8	KHDRBS1	0.76
9	BEX3 (brain expressed X-linked 3)	1.02
10	BEX3 (brain expressed X-linked 3)	-0.91
11	BEX3 (brain expressed X-linked 3)	-0.66
12	BEX3 (brain expressed X-linked 3)	-1.62 (active)
13	WDR53 (WD repeat domain 53)	3.12 (active)
14	WDR53 (WD repeat domain 53)	2.82 (active)
15	WDR53 (WD repeat domain 53)	2.41
16	WDR53 (WD repeat domain 53)	1.69
17	PTGER2 (prostaglandin E receptor 2)	-1.2
18	PTGER2 (prostaglandin E receptor 2)	-1.29
19	PTGER2 (prostaglandin E receptor 2)	-1
20	CCDC184 (coiled-coil domain containing 184)	-0.26
21	CCDC184 (coiled-coil domain containing 184)	3.74 (active)
22	CCDC184 (coiled-coil domain containing 184)	0.94
23	CCDC184 (coiled-coil domain containing 184)	0.04
24	TUSC3 (tumor suppressor candidate 3)	-0.52
25	TUSC3 (tumor suppressor candidate 3)	0.43
26	TUSC3 (tumor suppressor candidate 3)	0.44
27	TUSC3 (tumor suppressor candidate 3)	0.45
28	COL6A2 (collagen type VI alpha 2 chain)	0.01
29	COL6A2 (collagen type VI alpha 2 chain)	0.77
30	COL6A2 (collagen type VI alpha 2 chain)	0.82
31	COL6A2 (collagen type VI alpha 2 chain)	1.36
32	SEMA4G (semaphorin 4G)	0.6
33	SEMA4G (semaphorin 4G)	-0.02
34	SEMA4G (semaphorin 4G)	0.22
35	SEMA4G (semaphorin 4G)	0.64
36	LDB2 (LIM domain binding 2)	-0.62
37	LDB2 (LIM domain binding 2)	-1.05
38	LDB2 (LIM domain binding 2)	-0.82
39	LDB2 (LIM domain binding 2)	-0.04
40	MAGED4B (MAGE family member D4B)	-1.05
41	MAGED4B (MAGE family member D4B)	-1.36
42	MAGED4B (MAGE family member D4B)	-0.99
43	MAGED4B (MAGE family member D4B)	0.71
44	KAT6B (lysine acetyltransferase 6B)	0.22
45	KAT6B (lysine acetyltransferase 6B)	1.22
46	KAT6B (lysine acetyltransferase 6B)	0.73
47	KAT6B (lysine acetyltransferase 6B)	0.9
48	DCTPP1 (dCTP pyrophosphatase 1)	0
49	DCTPP1 (dCTP pyrophosphatase 1)	-1.28
50	DCTPP1 (dCTP pyrophosphatase 1)	-0.99
51	DCTPP1 (dCTP pyrophosphatase 1)	0.28
52	FRAT2 (FRAT regulator of Wnt signaling pathway 2)	2.12
53	FRAT2 (FRAT regulator of Wnt signaling pathway 2)	1.88
54	FRAT2 (FRAT regulator of Wnt signaling pathway 2)	2.29
55	FRAT2 (FRAT regulator of Wnt signaling pathway 2)	3.23 (active)
56	ST6GALNAC6 (ST6 N-acetylgalactosaminide alpha-2,6-sialyltransferase 6)	-0.56
57	ST6GALNAC6 (ST6 N-acetylgalactosaminide alpha-2,6-sialyltransferase 6)	-0.25
58	ST6GALNAC6 (ST6 N-acetylgalactosaminide alpha-2,6-sialyltransferase 6)	0.19
59	ST6GALNAC6 (ST6 N-acetylgalactosaminide alpha-2,6-sialyltransferase 6)	-0.06
60	CXCL3 (C-X-C motif chemokine ligand 3)	-0.66
61	CXCL3 (C-X-C motif chemokine ligand 3)	-0.12
62	CXCL3 (C-X-C motif chemokine ligand 3)	0.38
63	CXCL3 (C-X-C motif chemokine ligand 3)	0.32
64	SNX7 (sorting nexin 7)	1.09
65	SNX7 (sorting nexin 7)	0.55
66	SNX7 (sorting nexin 7)	1.46
67	SNX7 (sorting nexin 7)	0.59
68	CANT1 (calcium activated nucleotidase 1)	0.49
69	CANT1 (calcium activated nucleotidase 1)	0.61
70	CANT1 (calcium activated nucleotidase 1)	0.02
71	CANT1 (calcium activated nucleotidase 1)	-0.42

Reformatted: results already given.
BEX3 (brain expressed X-linked 3) — TNF reporter robust z-score = -1.62 (active)
WDR53 (WD repeat domain 53) — TNF reporter robust z-score = 3.12 (active)
WDR53 (WD repeat domain 53) — TNF reporter robust z-score = 2.82 (active)
WDR53 (WD repeat domain 53) — TNF reporter robust z-score = 2.41
WDR53 (WD repeat domain 53) — TNF reporter robust z-score = 1.69
PTGER2 (prostaglandin E receptor 2) — TNF reporter robust z-score = -1.2
PTGER2 (prostaglandin E receptor 2) — TNF reporter robust z-score = -1.29
PTGER2 (prostaglandin E receptor 2) — TNF reporter robust z-score = -1
CCDC184 (coiled-coil domain containing 184) — TNF reporter robust z-score = -0.26
CCDC184 (coiled-coil domain containing 184) — TNF reporter robust z-score = 3.74 (active)
CCDC184 (coiled-coil domain containing 184) — TNF reporter robust z-score = 0.94
CCDC184 (coiled-coil domain containing 184) — TNF reporter robust z-score = 0.04
TUSC3 (tumor suppressor candidate 3) — TNF reporter robust z-score = -0.52
TUSC3 (tumor suppressor candidate 3) — TNF reporter robust z-score = 0.43
TUSC3 (tumor suppressor candidate 3) — TNF reporter robust z-score = 0.44
TUSC3 (tumor suppressor candidate 3) — TNF reporter robust z-score = 0.45
COL6A2 (collagen type VI alpha 2 chain) — TNF reporter robust z-score = 0.01
COL6A2 (collagen type VI alpha 2 chain) — TNF reporter robust z-score = 0.77

The results go on:
no.	target	TNF reporter robust z-score
72	ANAPC10 (anaphase promoting complex subunit 10)	-0.41
73	ANAPC10 (anaphase promoting complex subunit 10)	0.55
74	ANAPC10 (anaphase promoting complex subunit 10)	0.1
75	ANAPC10 (anaphase promoting complex subunit 10)	0.45
76	DHX15 (DEAH-box helicase 15)	-0.12
77	DHX15 (DEAH-box helicase 15)	0.42
78	DHX15 (DEAH-box helicase 15)	0.11
79	DHX15 (DEAH-box helicase 15)	1.11
80	SSC4D	-0.99
81	SSC4D	0.03
82	SSC4D	-0.47
83	SSC4D	0.55
84	WDR49 (WD repeat domain 49)	-0.17
85	WDR49 (WD repeat domain 49)	-0.3
86	WDR49 (WD repeat domain 49)	-0.25
87	WDR49 (WD repeat domain 49)	-0.35
88	FOXRED1 (FAD dependent oxidoreductase domain containing 1)	-0.61
89	FOXRED1 (FAD dependent oxidoreductase domain containing 1)	1.53
90	FOXRED1 (FAD dependent oxidoreductase domain containing 1)	-0.43
91	FOXRED1 (FAD dependent oxidoreductase domain containing 1)	1.02
92	OBSL1 (obscurin like cytoskeletal adaptor 1)	2.27
93	OBSL1 (obscurin like cytoskeletal adaptor 1)	1.91
94	OBSL1 (obscurin like cytoskeletal adaptor 1)	2.95 (active)
95	OBSL1 (obscurin like cytoskeletal adaptor 1)	3.22 (active)
96	RACK1 (receptor for activated C kinase 1)	-1.59 (active)
97	RACK1 (receptor for activated C kinase 1)	-0.2
98	RACK1 (receptor for activated C kinase 1)	-0.97
99	RACK1 (receptor for activated C kinase 1)	-1
100	SLFN11 (schlafen family member 11)	0.59
101	SLFN11 (schlafen family member 11)	0.27
102	SLFN11 (schlafen family member 11)	0.66
103	SLFN11 (schlafen family member 11)	1.22
104	RAP1A (RAP1A, member of RAS oncogene family)	-0.19
105	RAP1A (RAP1A, member of RAS oncogene family)	-1.5
106	RAP1A (RAP1A, member of RAS oncogene family)	-1.43
107	RAP1A (RAP1A, member of RAS oncogene family)	-1.02
108	YARS1 (tyrosyl-tRNA synthetase 1)	-1.75 (active)
109	YARS1 (tyrosyl-tRNA synthetase 1)	-1.65 (active)
110	YARS1 (tyrosyl-tRNA synthetase 1)	-1.18
111	YARS1 (tyrosyl-tRNA synthetase 1)	-1.25
